The list is a part of this screen's results and no random one: it gathers tests that were run many times, whatever their T/C, doses with no T/C, and many T/C values between a quarter and a half above the control. Other doses and runs of a compound stand elsewhere. T/C: endpoint of the treated group in % of that of the vehicle group. Some entries give survivors of the animals treated and no T/C: the source holds a T/C of zero for them, seemingly a mark for toxic or unscored doses. Some doses without a T/C left all or most animals alive at the check, yet need not have been tolerated: the source hardly ever lists a survival T/C far under the control, and the zero likely stands for such cases as well. Survivors were counted at the toxicity check, usually on the fifth day, unless a day is given; later deaths do not show. Schedule codes are those of the source, taken here to give the interval after Q, in days (D) or hours (H), and the number of doses after X. Some entries hold several experiments; the results are listed from low to high. Additions like (4×) stand for listed records that agree. Where survival is the endpoint, this PubChem deposit counts one and a half times the control or more as active, and values a quarter to a half above the control carry no call in these data; other NCI protocols may use other cut-offs. Some T/C values carry the count of animals alive at the toxicity check (mostly the fifth day); without a count, all were alive then.
Tested on: BDF1 mice, P388 leukemia ip, median survival T/C
Assay: NCI In Vivo Anticancer Drug Screen. Data for tumor model P388 Leukemia (intraperitoneal) in B6D2F1 (BDF1) mice
Details: T/C endpoint: median survival time, higher T/C = longer survival
Method in brief: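 Each value expresses how treatment altered survival: treated-mouse outcome over vehicle-mouse outcome, both groups bearing the transplanted tumour.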

[1] = dose: 25.0 mg/kg/injection, schedule: Q01DX009 (ip), vehicle: saline
[2] = dose: 50.0 mg/kg/injection, schedule: Q01DX009 (ip), vehicle: saline
[3] = dose: 50.0 mg/kg/injection, schedule: Q01DX009 (ip), vehicle: saline with Tween-80
[4] = dose: 100.0 mg/kg/injection, schedule: Q01DX009 (ip), vehicle: saline with Tween-80
[5] = dose: 200.0 mg/kg/injection, schedule: Q01DX009 (ip), vehicle: saline with Tween-80
[6] = dose: 50.0 mg/kg/injection, schedule: Q01DX009 (ip), vehicle: water
[7] = dose: 200.0 mg/kg/injection, schedule: Q01DX009 (ip), vehicle: water
[8] = dose: 400.0 mg/kg/injection, schedule: Q04DX003 (ip), vehicle: saline
[9] = dose: 100.0 mg/kg/injection, schedule: Q04DX003 (ip), vehicle: saline with Tween-80
[10] = dose: 400.0 mg/kg/injection, schedule: Q01DX009 (ip), vehicle: saline with Tween-80
[11] = dose: 12.5 mg/kg/injection, schedule: Q01DX009 (ip), vehicle: saline with Tween-80
[12] = dose: 25.0 mg/kg/injection, schedule: Q01DX009 (ip), vehicle: saline with Tween-80
[13] = dose: 50.0 mg/kg/injection, schedule: Q04DX003 (ip), vehicle: saline with Tween-80
[14] = dose: 200.0 mg/kg/injection, schedule: Q04DX003 (ip), vehicle: saline with Tween-80

Nc1cc(Cl)c2cccnc2c1O
T/C [1]: 127 % of control
T/C (dose: 33.0 mg/kg/injection, schedule: Q01DX009 (ip), vehicle: saline): 131 % of control
T/C [2]: 127, 128, 135, 141 % of control
survivor count (dose: 75.0 mg/kg/injection, schedule: Q01DX009 (ip), vehicle: saline): 5 of 6
survivor count (dose: 100.0 mg/kg/injection, schedule: Q01DX009 (ip), vehicle: saline): 1 of 6 and 2 of 6
T/C (dose: 100.0 mg/kg/injection, schedule: Q04DX003 (ip), vehicle: saline sonified): 125 % of control
survivor count (dose: 150.0 mg/kg/injection, schedule: Q04DX003 (ip), vehicle: saline sonified): 3 of 6
survivor count (dose: 200.0 mg/kg/injection, schedule: Q04DX003 (ip), vehicle: saline sonified): 2 of 6

CC(C)COC(=O)NCCF
survivor count [3]: 0 of 6
survivor count [4]: 0 of 6
survivor count [5]: 0 of 6

c1ccc2c(c1)nnn1c3ncccc3nc21
survivor count [4]: 3 of 6
survivor count [5]: 5 of 6

CC1(C)CC1(Br)Br
T/C [3]: 126 and 135 % of control
survivor count [5]: 3 of 6

COc1cccc2c1C(=O)c1c(O)c(COC3CC(N)C(O)C(C)O3)cc(O)c1C2=O (centres undefined)
survivor count [6]: 3 of 3
survivor count (dose: 100.0 mg/kg/injection, schedule: Q01DX009 (ip), vehicle: water): 0 of 3
survivor count [7]: 0 of 3

C[N+]1(C2CCC3CCC2C3O)CCOCC1 (centres undefined)
survivor count [1]: 6 of 6
survivor count (dose: 200.0 mg/kg/injection, schedule: Q04DX003 (ip), vehicle: saline): 5 of 6
survivor count [8]: 0 of 6 (2×)

O=C(O)CNC(=O)Nc1ccccc1
survivor count [9]: 6 of 6

O=[N+]([O-])c1ccc(N2CCN(CCO)CC2)c2c1no[n+]2[O-]
T/C (dose: 7.5 mg/kg/injection, schedule: Q01DX009 (ip), vehicle: saline with Tween-80): 142 % of control

O=C(O)CCSc1ncnc2nc[nH]c12
survivor count [4]: 6 of 6
survivor count [5]: 6 of 6
survivor count [10]: 5 of 6

CCCCCCCCCCCCSSC(=S)OC(C)C
T/C (dose: 200.0 mg/kg/injection, schedule: Q01DX009 (ip), vehicle: other): 128 % of control

C[n+]1ccc2cc(-c3ccccc3)c3ccccc3c2c1
T/C (dose: 8.0 mg/kg/injection, schedule: Q01DX009 (ip), vehicle: water): 131 % of control

C[n+]1ccc2cc(N)c3c4ccccc4sc3c2c1
survivor count (dose: 1.56 mg/kg/injection, schedule: Q01DX009 (ip), vehicle: saline with Tween-80): 6 of 6
T/C (dose: 6.25 mg/kg/injection, schedule: Q01DX009 (ip), vehicle: saline with Tween-80, evaluated on day 20): 135 % of control [4 of 6 alive]
T/C (dose: 6.25 mg/kg/injection, schedule: Q01DX009 (ip), vehicle: saline with Tween-80, evaluated on day 30): 128 % of control
T/C (dose: 12.5 mg/kg/injection, schedule: Q01DX009 (ip), vehicle: Klucel (hydroxypropylcellulose) (HPC)): 140 % of control
T/C [11]: 128 % of control
survivor count [11]: 3 of 6
T/C [12]: 137 % of control
survivor count (dose: 50.0 mg/kg/injection, schedule: Q01DX009 (ip), vehicle: Klucel (hydroxypropylcellulose) (HPC)): 0 of 6
survivor count [3]: 0 of 6 and 3 of 6
survivor count [13]: 5 of 6

Cc1ccc(S(=O)(=O)OCCN(CCOS(=O)(=O)c2ccc(C)cc2)c2cc(OCc3ccccc3)cc(OCc3ccccc3)c2)cc1
survivor count (dose: 25.0 mg/kg/injection, schedule: Q01DX009 (ip), vehicle: water): 5 of 6
survivor count [6]: 6 of 6
survivor count [7]: 6 of 6
survivor count (dose: 400.0 mg/kg/injection, schedule: Q01DX009 (ip), vehicle: water): 6 of 6

CCOC(=S)SCc1cc(C(C)(C)C)c(O)c(C(C)(C)C)c1
T/C (dose: 400.0 mg/kg/injection, schedule: Q04DX002 (ip), vehicle: saline with Tween-80): 128 % of control

CC(NC(=O)C(C)NC(=O)C(N)CCS(C)(=O)=NP(=O)(O)O)C(=O)O (centres undefined)
survivor count [2]: 1 of 3

CCCCCCN(CCCCCC)P(=O)(N1CC1)N1CC1
T/C [13]: 127 % of control
survivor count (dose: 75.0 mg/kg/injection, schedule: Q04DX003 (ip), vehicle: saline with Tween-80): 6 of 6

C[C@H]1[C@H](O)[C@H]2[C@@H](CCC3=CC(=O)CC[C@@]32C)[C@@H]2CC[C@H](O)[C@@]12C
survivor count [4]: 6 of 6

NNC(=O)C(O)C(O)C(=O)NN (centres undefined)
survivor count (dose: 30.0 mg/kg/injection, schedule: Q01DX009 (ip), vehicle: saline): 7 of 7

COc1cc(NS(C)(=O)=O)ccc1Nc1c2ccc([N+](=O)[O-])cc2nc2c(C)cccc12
T/C (dose: 0.42 mg/kg/injection, schedule: Q04DX003 (ip), vehicle: saline with Tween-80): 129 % of control
T/C (dose: 0.86 mg/kg/injection, schedule: Q04DX003 (ip), vehicle: saline with Tween-80): 137 % of control

COc1cc(C(C)O)cc(OC)c1OC (centres undefined)
survivor count [10]: 6 of 6

CC1(C)O[C@]2(C)CC[C@@H]1[C@H](O)[C@@H]2N1CCCC1
survivor count (dose: 200.0 mg/kg/injection, schedule: Q01DX005 (ip), vehicle: saline with Tween-80): 0 of 5

CC1(C)N=C(N)N=C(N)N1c1ccc(Cl)c(Cl)c1
T/C (dose: 9.9 mg/kg/injection, schedule: Q01DX009 (ip), vehicle: Klucel (hydroxypropylcellulose) (HPC)): 136 % of control
T/C (dose: 10.7 mg/kg/injection, schedule: Q01DX009 (ip), vehicle: Klucel (hydroxypropylcellulose) (HPC)): 145 % of control
survivor count (dose: 60.0 mg/kg/injection, schedule: Q01DX009 (ip), vehicle: Klucel (hydroxypropylcellulose) (HPC)): 5 of 6
T/C (dose: 60.0 mg/kg/injection, schedule: Q04DX003 (ip), vehicle: Klucel (hydroxypropylcellulose) (HPC)): 140 % of control
survivor count (dose: 80.0 mg/kg/injection, schedule: Q04DX003 (ip), vehicle: Klucel (hydroxypropylcellulose) (HPC)): 2 of 6

CS(=O)(=O)OCCN(CCOS(C)(=O)=O)c1ccc(C=O)cc1
survivor count [12]: 6 of 6
survivor count [3]: 4 of 6 and 6 of 6
survivor count [4]: 1 of 6
survivor count [9]: 5 of 6
survivor count [5]: 2 of 6
survivor count [14]: 3 of 6
survivor count (dose: 400.0 mg/kg/injection, schedule: Q04DX003 (ip), vehicle: saline with Tween-80): 2 of 6

COC(=Nc1ccccc1)SSC(C)C
T/C [11]: 135 % of control
T/C [12]: 134 % of control
T/C [3]: 143 % of control
T/C [4]: 133 % of control

O=C(COc1cccc(Cl)c1)Nc1cccnc1
survivor count (dose: 400.0 mg/kg/injection, schedule: Q01DX001 (ip), vehicle: Klucel (hydroxypropylcellulose) (HPC)): 2 of 6

CN(C)c1ccc(/C=C/c2ccnc3ccc(Cl)cc23)cc1
T/C [4]: 133 % of control

C#CC1(OCC2CO2)CCCCC1 (centres undefined)
survivor count [2]: 6 of 6
T/C [8]: 130 % of control

CN1CCN(C(=O)Cc2c[nH]c3ccccc23)CC1
survivor count [11]: 6 of 6
survivor count [12]: 5 of 6
survivor count [14]: 3 of 6

CC(CC#N)NC(=O)C1CCC(N)=N1 (centres undefined)
survivor count (dose: 200.0 mg/kg/injection, schedule: Q01DX009 (ip), vehicle: saline): 6 of 6

CCCCCCCCCCCC(=O)CCC
survivor count (dose: 100.0 mg/kg/injection, schedule: Q04DX003 (ip), vehicle: other): 6 of 6

COc1cc(C=Nc2cccc(C(=O)O)c2)ccc1N(CCCl)CCCl
survivor count [9]: 3 of 6
survivor count (dose: 150.0 mg/kg/injection, schedule: Q04DX003 (ip), vehicle: saline with Tween-80): 1 of 6
